# Experimental data: PubChem BioAssay AID1259282 (Sanger Institute, 2017)
# Purpose: 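siRNA screen across the kinome seeking drug combinations lethal to colorectal cancer cells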 (primary screen)
# Cell system: DIFI human colorectal cancer cell line
# Reagent: siRNA pool against human genes
# Challenge: anchor drug at a mild dose (BYL719 1 µM, cetuximab 5 µg/ml, trametinib 10 nM) or DMSO vehicle; exposure time not given
# Read-out: 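Robust z-score and replicate-mean viability versus non-targeting pool without drug, plus a synergy score for each low-dose anchor drug (BYL719, cetuximab, trametinib)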
# Reading the numbers: robust z-score, knock-down alone: higher = more viable cells than typical knock-down; viability, knock-down alone: higher = more viable cells; synergy score with trametinib and synergy score with cetuximab: higher = stronger combined killing with drug
# Active means: 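Essential when the robust z-score of the knock-down without drug falls below -3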
# Calls: active = essential (knock-down alone, z below -3); inactive = not essential
# This is one part, drawn at random, of 794 reagents. In the full data, 11 (1.4%) are marked active. 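Calls flag knock-downs that lower viability without drug; drug synergy appears only in the synergy scores; exposure time not stated.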 No viability above 1 is reported: the scale is capped. Further read-outs or replicates are left out here. Not given: the amount of reagent, the time to read-out.
"robust z-score, knock-down alone","viability, knock-down alone (fraction of control)",synergy score with trametinib,synergy score with cetuximab,call,gene knocked down
-2.14,0.586,-0.0593,0.0483,inactive,RUNX1 (RUNX family transcription factor 1)
-0.00939,0.895,0.0118,-0.0245,inactive,ACO1 (aconitase 1)
0.715,1,-0.249,-0.224,inactive,MAST4
-0.858,0.772,0.0311,0.133,inactive,FOXP1 (forkhead box P1)
-1.24,0.716,0.167,0.0982,inactive,SCYL3 (SCY1 like pseudokinase 3)
-1.43,0.688,0.0838,0.0773,inactive,PTK2 (protein tyrosine kinase 2)
-0.527,0.82,0.0561,-0.0816,inactive,HIPK2 (homeodomain interacting protein kinase 2)
0.715,1,-0.069,-0.00714,inactive,FASTK (Fas activated serine/threonine kinase)
0.715,1,0.0212,-0.0926,inactive,CDK5R1 (cyclin dependent kinase 5 regulatory subunit 1)
0.385,0.952,0.0519,-0.00282,inactive,PRKAR1B (protein kinase cAMP-dependent type I regulatory subunit beta)
-2.06,0.597,0.0567,0.0885,inactive,CHD4 (chromodomain helicase DNA binding protein 4)
0.393,0.953,-0.114,-0.0124,inactive,AK3 (adenylate kinase 3)
0.338,0.945,0.103,0.0028,inactive,GRK2 (G protein-coupled receptor kinase 2)
-0.169,0.872,0.119,0.0203,inactive,"CKMT1B (creatine kinase, mitochondrial 1B)"
0.715,1,0.0557,0.0698,inactive,CPNE3 (copine 3)
0.0735,0.907,0.147,0.0482,inactive,SRPK2 (SRSF protein kinase 2)
0.715,1,0.0861,-0.0444,inactive,HUS1 (HUS1 checkpoint clamp component)
0.715,1,-0.00883,-0.0761,inactive,JAK2 (Janus kinase 2)
0.192,0.924,0.109,-0.0242,inactive,PRKX (protein kinase cAMP-dependent X-linked catalytic subunit)
0.715,1,0.123,0.0814,inactive,IRAK2 (interleukin 1 receptor associated kinase 2)
0.182,0.923,-0.15,-0.136,inactive,CDK17 (cyclin dependent kinase 17)
0.0216,0.899,-0.0252,0.0861,inactive,DGKD (diacylglycerol kinase delta)
0.451,0.962,0.104,-0.0166,inactive,PDK2 (pyruvate dehydrogenase kinase 2)
0.715,1,-0.129,-0.129,inactive,TSKS (testis specific serine kinase substrate)
0.0848,0.908,0.144,0.0384,inactive,COMMD3 (COMM domain containing 3)
0.715,1,0.03,0.169,inactive,ACVR1 (activin A receptor type 1)
0.715,1,-0.0136,-0.239,inactive,CTNNB1 (catenin beta 1)
0.715,1,0.0218,0.0356,inactive,MAP3K6 (mitogen-activated protein kinase kinase kinase 6)
0.715,1,0.0372,-0.158,inactive,CSNK1A1 (casein kinase 1 alpha 1)

Copied from the list:
MAST4, call = inactive
For “robust z-score, knock-down alone”, PDK2 (pyruvate dehydrogenase kinase 2) shows 0.451
SCYL3 (SCY1 like pseudokinase 3), call → inactive
